Data published in PMC10353822.
These are yes or no findings as the source states them, for the method shown. In cells and extracts the contact can be indirect. A yes stands for co-enrichment or nearness to the bait. Other partners may have been found. Sequences can lack the tags named with a protein. Each block holds one binder with its values, some of them ahead of it.

Molecular target: T1, TRIM33 with C-terminal FLAG, Q9UPN9
T1 chain: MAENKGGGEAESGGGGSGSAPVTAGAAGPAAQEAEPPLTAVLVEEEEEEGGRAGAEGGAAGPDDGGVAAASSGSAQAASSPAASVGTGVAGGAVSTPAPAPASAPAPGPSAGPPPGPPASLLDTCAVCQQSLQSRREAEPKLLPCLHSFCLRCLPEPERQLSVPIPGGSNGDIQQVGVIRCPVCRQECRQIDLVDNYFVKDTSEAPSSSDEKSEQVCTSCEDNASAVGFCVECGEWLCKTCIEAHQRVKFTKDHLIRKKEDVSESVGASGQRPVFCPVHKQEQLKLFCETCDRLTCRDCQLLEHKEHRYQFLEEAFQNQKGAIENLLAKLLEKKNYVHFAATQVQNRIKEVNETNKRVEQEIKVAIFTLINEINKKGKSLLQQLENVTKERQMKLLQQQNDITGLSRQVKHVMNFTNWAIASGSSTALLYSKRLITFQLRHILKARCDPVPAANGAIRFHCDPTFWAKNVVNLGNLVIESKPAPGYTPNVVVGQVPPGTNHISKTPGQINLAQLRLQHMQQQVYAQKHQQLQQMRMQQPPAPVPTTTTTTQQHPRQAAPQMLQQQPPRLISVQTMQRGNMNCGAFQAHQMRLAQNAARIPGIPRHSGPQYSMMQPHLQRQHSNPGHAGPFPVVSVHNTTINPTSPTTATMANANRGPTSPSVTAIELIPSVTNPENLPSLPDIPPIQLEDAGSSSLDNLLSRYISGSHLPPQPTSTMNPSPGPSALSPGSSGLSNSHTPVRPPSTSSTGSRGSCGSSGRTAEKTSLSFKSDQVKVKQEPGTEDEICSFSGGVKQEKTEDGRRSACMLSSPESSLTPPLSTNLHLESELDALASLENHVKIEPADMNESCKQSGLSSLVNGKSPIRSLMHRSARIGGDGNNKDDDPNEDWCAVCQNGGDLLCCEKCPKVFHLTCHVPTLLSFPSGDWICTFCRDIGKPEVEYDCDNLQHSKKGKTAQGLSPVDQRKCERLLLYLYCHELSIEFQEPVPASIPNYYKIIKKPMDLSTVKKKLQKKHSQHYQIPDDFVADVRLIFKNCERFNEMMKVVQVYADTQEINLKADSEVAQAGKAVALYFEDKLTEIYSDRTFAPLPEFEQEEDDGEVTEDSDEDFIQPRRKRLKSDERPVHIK
Assay: affinity purification with mass spectrometry; TRIM33-FLAG expressed in AGS-EBV-Z cells, dox 24 h; 6 mg lysate on anti-FLAG M2 magnetic beads 4 h at 4°C; RIPA buffer (50 mM Tris-HCl pH 8.0, 300 mM NaCl, 0.1% sodium deoxycholate, 0.5% NP40 substitute, 2 mM EDTA); two independent experiments
Details: remark: other sources report otherwise

binding: binds
B1: TRIM24 (endogenous), O15164 1-1050 (protein)
chain: MEVAVEKAVAAAAAASAAASGGPSAAPSGENEAESRQGPDSERGGEAARLNLLDTCAVCHQNIQSRAPKLLPCLHSFCQRCLPAPQRYLMLPAPMLGSAETPPPVPAPGSPVSGSSPFATQVGVIRCPVCSQECAERHIIDNFFVKDTTEVPSSTVEKSNQVCTSCEDNAEANGFCVECVEWLCKTCIRAHQRVKFTKDHTVRQKEEVSPEAVGVTSQRPVFCPFHKKEQLKLYCETCDKLTCRDCQLLEHKEHRYQFIEEAFQNQKVIIDTLITKLMEKTKYIKFTGNQIQNRIIEVNQNQKQVEQDIKVAIFTLMVEINKKGKALLHQLESLAKDHRMKLMQQQQEVAGLSKQLEHVMHFSKWAVSSGSSTALLYSKRLITYRLRHLLRARCDASPVTNNTIQFHCDPSFWAQNIINLGSLVIEDKESQPQMPKQNPVVEQNSQPPSGLSSNQLSKFPTQISLAQLRLQHMQQQVMAQRQQVQRRPAPVGLPNPRMQGPIQQPSISHQQPPPRLINFQNHSPKPNGPVLPPHPQQLRYPPNQNIPRQAIKPNPLQMAFLAQQAIKQWQISSGQGTPSTTNSTSSTPSSPTITSAAGYDGKAFGSPMIDLSSPVGGSYNLPSLPDIDCSSTIMLDNIVRKDTNIDHGQPRPPSNRTVQSPNSSVPSPGLAGPVTMTSVHPPIRSPSASSVGSRGSSGSSSKPAGADSTHKVPVVMLEPIRIKQENSGPPENYDFPVVIVKQESDEESRPQNANYPRSILTSLLLNSSQSSTSEETVLRSDAPDSTGDQPGLHQDNSSNGKSEWLDPSQKSPLHVGETRKEDDPNEDWCAVCQNGGELLCCEKCPKVFHLSCHVPTLTNFPSGEWICTFCRDLSKPEVEYDCDAPSHNSEKKKTEGLVKLTPIDKRKCERLLLFLYCHEMSLAFQDPVPLTVPDYYKIIKNPMDLSTIKKRLQEDYSMYSKPEDFVADFRLIFQNCAEFNEPDSEVANAGIKLENYFEELLKNLYPEKRFPKPEFRNESEDNKFSDDSDDDFVQPRKKRLKSIEERQLLK

binding: binds
B2: TRIM28 (endogenous), Q13263 1-835 (protein)
chain: MAASAAAASAAAASAASGSPGPGEGSAGGEKRSTAPSAAASASASAAASSPAGGGAEALELLEHCGVCRERLRPEREPRLLPCLHSACSACLGPAAPAAANSSGDGGAAGDGTVVDCPVCKQQCFSKDIVENYFMRDSGSKAATDAQDANQCCTSCEDNAPATSYCVECSEPLCETCVEAHQRVKYTKDHTVRSTGPAKSRDGERTVYCNVHKHEPLVLFCESCDTLTCRDCQLNAHKDHQYQFLEDAVRNQRKLLASLVKRLGDKHATLQKSTKEVRSSIRQVSDVQKRVQVDVKMAILQIMKELNKRGRVLVNDAQKVTEGQQERLERQHWTMTKIQKHQEHILRFASWALESDNNTALLLSKKLIYFQLHRALKMIVDPVEPHGEMKFQWDLNAWTKSAEAFGKIVAERPGTNSTGPAPMAPPRAPGPLSKQGSGSSQPMEVQEGYGFGSGDDPYSSAEPHVSGVKRSRSGEGEVSGLMRKVPRVSLERLDLDLTADSQPPVFKVFPGSTTEDYNLIVIERGAAAAATGQPGTAPAGTPGAPPLAGMAIVKEEETEAAIGAPPTATEGPETKPVLMALAEGPGAEGPRLASPSGSTSSGLEVVAPEGTSAPGGGPGTLDDSATICRVCQKPGDLVMCNQCEFCFHLDCHLPALQDVPGEEWSCSLCHVLPDLKEEDGSLSLDGADSTGVVAKLSPANQRKCERVLLALFCHEPCRPLHQLATDSTFSLDQPGGTLDLTLIRARLQEKLSPPYSSPQEFAQDVGRMFKQFNKLTEDKADVQSIIGLQRFFETRMNEAFGDTKFSAVLVEPPPMSLPGAGLSSQELSGGPGDGP
